Data: article PMC8383118

Molecular target: T1, Prx (paratox) (Streptococcus pyogenes MGAS315 (prophage)) (UniProt A0A0H2UWN8)
T1 sequence (looked up, limits assumed): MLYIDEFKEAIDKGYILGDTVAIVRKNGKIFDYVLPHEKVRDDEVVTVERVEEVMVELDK
Experiment: EMSA
Conditions: Prx alone; 8 uM XIP, 100 ng FAM-DNA, 15-30 min incubation; 5% native PAGE, 100 V, 50 min, 4 C; recombinant protein; protein details: His-tag; label: 5' FAM (reverse primer); probe letters rebuilt from the primers and the genome

CCTGTTATTCTCCTTTCTTTTTGATATCATTCATTATAAATGATCCTTCAAAAAAAGAACAGGACATTTATGTCCCGTTCTGAGAATCTTTTTGCCATTCTTTCTCCAAATTTTCTCTTAAATTAATGTTTTCTGTTAACTGGGCAAATAAGATAGCAGCATCATAGCTCTTTTTAGCTTCCGCATAATCTTTTTCAACAAATAAATGATGCTTCCATGTCAGAAGATTAACAATAGGCTTTTTTTGAAAATCATGAGTTCTATCCATGATTTTATTGCTGACAGCAATAAGCTGCTTAACAAAATCATATTTTTTCAATTCTAAGAGGAGTCCAAAATTATTCAATAAAACATTATTTAAAACGAAAAGATCTTCCAATGGAAGGCAGTCTACCTGCTT (double strand) [comS promoter probe (PcomS)]
binding result: no binding

For at least one entry, the source does not settle the construct or the ends of the probe. A negative result means that nothing was seen under these conditions. At least one verdict was read from the data and is not stated in words by the source. Where a protein sequence is shown, tags need not be part of it.
